Data as given in PubChem BioAssay AID504791 (Drosophila RNAi Screening Center, 2011).

Assay: 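Genes whose knock-down strengthens or weakens small-RNA reporter silencing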 (primary screen)
Cell system: Drosophila S2-derived reporter cells
Reagents: long dsRNA against Drosophila genes, about 150-250 ng dsRNA per well (siRNA assay); about 80-120 ng (miRNA assay)
Timing: about 5 days (siRNA assay); about 4 days (miRNA assay)
Conditions: copper sulfate induction of reporters: 25 µM (siRNA assay); 200 mM stated (miRNA assay), 1-2 days before reading
Measurement: 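Dual luciferase assay: Renilla to firefly signal ratio in each well, scaled to the mean ratio of its plate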
Rule for the call: 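a well was a first-pass pick when its plate-scaled ratio rose above 1.5 (siRNA assay) or 1.6 (miRNA assay), or dropped below 0.6; a gene counted only if two separate dsRNAs agreed on retest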
In all, the deposit lists about 23,000 reagents; shown is a random part of those with a known target gene and a result. Of all reagents, 199 (0.86%) were called active. 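Plate-scaled ratios behind the calls are not deposited; printed light signals are raw; many rows marked increased or decreased are still called inactive.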 A plus sign joins genes that one reagent is predicted to hit. Reagent sequences are not shown. Not stated in the record: the direction of the score.

| gene | dsRNA | stable siRNA reporter change | miRNA reporter change | stable assay Renilla, run 1 (luminescence) | stable assay firefly, run 1 (luminescence) | Outcome |
| --- | --- | --- | --- | --- | --- | --- |
| CG11106 | DRSC19381 | – | – | 5816 | 4.10e5 | inactive |
| ph-p (polyhomeotic proximal) | DRSC18820 | – | – | 6054 | 4.73e5 | inactive |
| CG5532 | DRSC04509 | – | – | 5171 | 6.11e5 | inactive |
| Uba5 (Ubiquitin-like activating enzyme 5) | DRSC19775 | – | – | 5068 | 4.41e5 | inactive |
| CG18744 | DRSC15381 | – | – | 6983 | 3.98e5 | inactive |
| CG17883 | DRSC07838 | – | – | 5807 | 3.06e5 | inactive |
| mav (maverick) | DRSC17149 | – | – | 7255 | 4.13e5 | inactive |
| CG12680 | DRSC17871 | – | – | 5804 | 3.55e5 | inactive |
| wam (wampa) | DRSC15171 | – | – | 7215 | 3.08e5 | inactive |
| asrij | DRSC04175 | – | – | 7170 | 3.71e5 | inactive |
| SdhAL (Succinate dehydrogenase, subunit A (flavoprotein)-like) | DRSC10539 | – | – | 7371 | 4.27e5 | inactive |
| Gr98b (Gustatory receptor 98b) | DRSC21675 | – | – | 8720 | 4.04e5 | inactive |
| CG13252 | DRSC11700 | – | – | 8737 | 3.68e5 | inactive |
| dlt (discs lost) | DRSC08705 | – | – | 5840 | 3.37e5 | inactive |
| CG30392 | DRSC22341 | – | – | 8580 | 4.44e5 | inactive |
| CG13054 | DRSC09935 | – | – | 6826 | 3.09e5 | inactive |
| lectin-28C | DRSC03010 | – | – | 8138 | 4.22e5 | inactive |
| Nf-YC (Nuclear factor Y-box C) | DRSC18272 | reporter ratio raised past the hit cutoff | – | 3967 | 1.34e5 | inactive |
| Nf-YC (Nuclear factor Y-box C) | DRSC23106 | – | – | 3107 | 2.91e5 | inactive |
| CG12213 | DRSC14478 | – | – | 4870 | 3.69e5 | inactive |
| CG12213 | DRSC22109 | – | – | 8462 | 5.74e5 | inactive |
| Jwa | DRSC02048 | – | – | 8051 | 1.13e6 | inactive |
| smg (smaug) | DRSC11397 | – | – | 8442 | 4.07e5 | inactive |
| CG8960 | DRSC08612 | – | – | 11902 | 4.43e5 | inactive |
| CG9391 | DRSC11858 | – | – | 6096 | 3.57e5 | inactive |
| Taf10b + Taf10 | DRSC00793 | – | – | 8078 | 5.32e5 | inactive |
| NdufV3 (NADH:ubiquinone oxidoreductase subunit V3) | DRSC19423 | – | – | 6322 | 6.40e5 | inactive |
| mus101 (mutagen-sensitive 101) | DRSC19388 | – | – | 5714 | 5.74e5 | inactive |
| HDAC3 (Histone deacetylase 3) | DRSC12352 | – | – | 8222 | 3.91e5 | inactive |
| CG12241 | DRSC14481 | – | – | 7640 | 4.31e5 | inactive |
| CG7920 | DRSC16346 | – | – | 7484 | 4.88e5 | inactive |
| CG7920 | DRSC21594 | – | – | 9483 | 6.20e5 | inactive |
| CG14321 | DRSC14800 | – | – | 7306 | 4.77e5 | inactive |
| CG9068 | DRSC07329 | – | – | 6555 | 3.46e5 | inactive |
| EbpIII (Ejaculatory bulb protein III) | DRSC04638 | – | – | 10009 | 4.87e5 | inactive |
| CG6738 | DRSC16104 | – | – | 8534 | 3.82e5 | inactive |
| Eglp2 (Entomoglyceroporin 2) | DRSC04294 | – | – | 2.06e5 | 4.81e5 | inactive |
| Cyp28c1 (Cytochrome P450 28c1) | DRSC20236 | – | – | 5407 | 3.49e5 | inactive |
| frtz (fritz) | DRSC00512 | – | – | 7837 | 5.68e5 | inactive |
| CG14722 | DRSC14944 | – | – | 8167 | 3.43e5 | inactive |
| CG12567 | DRSC20845 | – | – | 5387 | 4.14e5 | inactive |
| ogre (optic ganglion reduced) | DRSC18809 | – | – | 8455 | 4.70e5 | inactive |
| CG10750 | DRSC02105 | – | – | 2.80e5 | 1.50e6 | inactive |
| Moca-cyp | DRSC15364 | – | – | 7786 | 4.77e5 | inactive |
| CG31510 | DRSC14182 | – | – | 7422 | 4.73e5 | inactive |
| Sry-alpha (Serendipity alpha) | DRSC16867 | – | – | 4615 | 3.24e5 | inactive |
| GC1 | DRSC15322 | – | – | 5978 | 3.83e5 | inactive |
| Mnr (Membrane-bound Notch regulator) | DRSC20549 | – | – | 6686 | 4.07e5 | inactive |
| Mnr (Membrane-bound Notch regulator) | DRSC20550 | – | – | 5234 | 2.96e5 | inactive |
| Mnr (Membrane-bound Notch regulator) | DRSC22441 | – | – | 4119 | 4.46e5 | inactive |
| Kyat (Kynurenine aminotransferase) | DRSC16147 | – | – | 6270 | 3.82e5 | inactive |
| CG7745 | DRSC07037 | – | reporter ratio lowered past the hit cutoff | 6990 | 3.21e5 | inactive |
| CG7745 | DRSC23103 | – | – | 4343 | 3.72e5 | inactive |
| ACXE (Adenylyl cyclase X E) | DRSC00847 | – | – | 7754 | 3.73e5 | inactive |
| mthl15 (methuselah-like 15) | DRSC01120 | – | – | 5252 | 4.18e5 | inactive |
| meso18E | DRSC20351 | – | – | 6828 | 6.19e5 | inactive |
| Cpr49Af (Cuticular protein 49Af) | DRSC07202 | – | – | 6207 | 3.17e5 | inactive |

Sorted by “stable assay firefly, run 1 (luminescence)” (highest first): some entries from above
| gene | dsRNA | stable siRNA reporter change | miRNA reporter change | stable assay Renilla, run 1 (luminescence) | stable assay firefly, run 1 (luminescence) | Outcome |
| --- | --- | --- | --- | --- | --- | --- |
| Uba5 (Ubiquitin-like activating enzyme 5) | DRSC19775 | – | – | 5068 | 4.41e5 | inactive |
| mav (maverick) | DRSC17149 | – | – | 7255 | 4.13e5 | inactive |
| CG18744 | DRSC15381 | – | – | 6983 | 3.98e5 | inactive |
| CG12680 | DRSC17871 | – | – | 5804 | 3.55e5 | inactive |
| CG17883 | DRSC07838 | – | – | 5807 | 3.06e5 | inactive |
